Source: the supplement of paper PMC12823440, “Inhibitors supercharge kinase turnover through native proteolytic circuits” (Nature, 2025)
Where a name gives a salt, the structure may show the parent alone. The list shows a part of the results. Hit calls seldom repeat between salt and free forms of one compound.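 Kinases were expressed as nanoluciferase fusions in K562 cells and luminescence was read every 4 h between 2 and 18 h as percent of control, DMSO set to 100% and a positive control to 0%. A time point counts as decreased when the signal drops significantly (2 sigma). The hit call is the authors' own, does not follow from the count of time points alone, and its rule is not shown.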

Amino acid sequences for entries named in this document (tags omitted). A change or cut given only in a name is not applied to a line headed by its entry.
UniProt P06239: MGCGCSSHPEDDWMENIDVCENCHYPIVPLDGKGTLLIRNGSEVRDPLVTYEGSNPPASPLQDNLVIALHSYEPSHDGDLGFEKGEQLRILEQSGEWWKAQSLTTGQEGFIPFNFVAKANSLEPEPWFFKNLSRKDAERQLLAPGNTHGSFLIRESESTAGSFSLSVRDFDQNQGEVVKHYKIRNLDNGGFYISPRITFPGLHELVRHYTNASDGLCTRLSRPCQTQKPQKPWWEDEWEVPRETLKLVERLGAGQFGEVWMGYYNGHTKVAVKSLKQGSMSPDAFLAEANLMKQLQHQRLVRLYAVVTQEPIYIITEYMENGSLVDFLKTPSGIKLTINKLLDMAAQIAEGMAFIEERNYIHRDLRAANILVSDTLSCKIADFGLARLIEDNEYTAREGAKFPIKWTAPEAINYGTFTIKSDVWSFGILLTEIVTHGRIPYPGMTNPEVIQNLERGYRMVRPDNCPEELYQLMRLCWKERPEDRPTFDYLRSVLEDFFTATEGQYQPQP
UniProt P53667: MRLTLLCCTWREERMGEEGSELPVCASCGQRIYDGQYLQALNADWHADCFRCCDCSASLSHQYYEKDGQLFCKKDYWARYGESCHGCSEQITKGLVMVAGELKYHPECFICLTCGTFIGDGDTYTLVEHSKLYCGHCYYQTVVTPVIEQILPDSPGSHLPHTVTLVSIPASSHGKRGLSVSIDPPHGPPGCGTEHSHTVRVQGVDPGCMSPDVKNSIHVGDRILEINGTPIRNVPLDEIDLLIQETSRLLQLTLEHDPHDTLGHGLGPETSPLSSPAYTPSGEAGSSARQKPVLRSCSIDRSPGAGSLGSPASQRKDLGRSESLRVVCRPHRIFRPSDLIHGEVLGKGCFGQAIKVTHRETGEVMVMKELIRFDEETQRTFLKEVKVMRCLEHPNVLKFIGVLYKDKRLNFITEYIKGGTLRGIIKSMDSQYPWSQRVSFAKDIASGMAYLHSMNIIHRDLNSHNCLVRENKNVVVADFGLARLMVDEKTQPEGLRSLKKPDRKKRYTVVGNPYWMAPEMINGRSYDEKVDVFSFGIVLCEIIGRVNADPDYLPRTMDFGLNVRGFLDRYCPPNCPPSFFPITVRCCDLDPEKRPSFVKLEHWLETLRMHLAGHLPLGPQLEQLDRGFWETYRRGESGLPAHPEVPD
UniProt P53671: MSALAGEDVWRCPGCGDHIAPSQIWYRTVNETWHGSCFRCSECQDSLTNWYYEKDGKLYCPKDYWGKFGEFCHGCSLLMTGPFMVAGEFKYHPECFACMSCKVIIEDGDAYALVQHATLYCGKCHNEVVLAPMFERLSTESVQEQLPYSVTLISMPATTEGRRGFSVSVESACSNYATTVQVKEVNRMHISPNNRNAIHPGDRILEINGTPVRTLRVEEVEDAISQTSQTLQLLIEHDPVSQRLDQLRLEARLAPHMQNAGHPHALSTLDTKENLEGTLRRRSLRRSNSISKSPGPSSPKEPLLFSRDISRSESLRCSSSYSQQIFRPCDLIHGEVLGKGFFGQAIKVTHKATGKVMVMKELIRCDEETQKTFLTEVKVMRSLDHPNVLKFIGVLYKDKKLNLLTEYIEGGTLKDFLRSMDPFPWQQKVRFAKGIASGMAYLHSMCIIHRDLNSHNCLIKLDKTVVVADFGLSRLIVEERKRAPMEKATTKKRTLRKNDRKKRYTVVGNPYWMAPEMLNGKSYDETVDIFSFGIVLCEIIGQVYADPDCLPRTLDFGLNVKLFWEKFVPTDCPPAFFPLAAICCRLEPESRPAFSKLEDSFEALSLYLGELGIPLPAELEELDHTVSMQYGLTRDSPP
UniProt Q12851: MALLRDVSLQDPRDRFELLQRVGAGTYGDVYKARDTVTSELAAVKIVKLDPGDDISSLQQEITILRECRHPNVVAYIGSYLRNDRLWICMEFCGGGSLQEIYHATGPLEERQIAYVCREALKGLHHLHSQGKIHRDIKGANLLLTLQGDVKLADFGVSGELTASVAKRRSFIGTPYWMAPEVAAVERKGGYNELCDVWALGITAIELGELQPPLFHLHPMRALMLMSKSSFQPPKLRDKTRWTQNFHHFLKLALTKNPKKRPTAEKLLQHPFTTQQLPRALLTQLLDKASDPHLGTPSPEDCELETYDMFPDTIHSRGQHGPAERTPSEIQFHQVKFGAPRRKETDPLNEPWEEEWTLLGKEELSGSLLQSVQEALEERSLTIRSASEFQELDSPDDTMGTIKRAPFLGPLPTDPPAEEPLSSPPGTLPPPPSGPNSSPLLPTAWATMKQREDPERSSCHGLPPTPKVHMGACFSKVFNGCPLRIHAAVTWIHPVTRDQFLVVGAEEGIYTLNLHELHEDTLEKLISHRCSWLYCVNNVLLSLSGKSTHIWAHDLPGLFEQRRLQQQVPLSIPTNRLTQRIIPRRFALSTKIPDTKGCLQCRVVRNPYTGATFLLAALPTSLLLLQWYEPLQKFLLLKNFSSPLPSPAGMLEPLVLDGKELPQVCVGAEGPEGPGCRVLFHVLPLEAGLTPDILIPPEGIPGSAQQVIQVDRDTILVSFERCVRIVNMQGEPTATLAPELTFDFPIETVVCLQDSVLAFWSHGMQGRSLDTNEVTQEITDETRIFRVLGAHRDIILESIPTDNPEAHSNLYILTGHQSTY
UniProt P31152, whole entry: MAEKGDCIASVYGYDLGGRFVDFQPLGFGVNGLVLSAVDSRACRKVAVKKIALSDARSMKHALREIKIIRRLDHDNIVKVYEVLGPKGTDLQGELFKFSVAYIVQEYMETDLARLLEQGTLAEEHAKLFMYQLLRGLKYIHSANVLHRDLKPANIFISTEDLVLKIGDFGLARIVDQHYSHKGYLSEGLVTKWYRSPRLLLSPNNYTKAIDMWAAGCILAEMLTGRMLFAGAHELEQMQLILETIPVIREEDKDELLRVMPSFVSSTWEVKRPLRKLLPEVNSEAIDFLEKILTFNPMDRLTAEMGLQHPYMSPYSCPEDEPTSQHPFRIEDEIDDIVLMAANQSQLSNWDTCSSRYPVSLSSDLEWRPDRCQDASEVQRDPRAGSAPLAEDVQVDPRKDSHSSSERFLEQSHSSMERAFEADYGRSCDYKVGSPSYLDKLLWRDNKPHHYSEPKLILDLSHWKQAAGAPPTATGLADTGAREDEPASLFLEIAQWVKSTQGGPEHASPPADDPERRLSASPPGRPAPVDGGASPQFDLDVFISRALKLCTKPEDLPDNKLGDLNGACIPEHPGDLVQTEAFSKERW
UniProt P49137, whole entry, looked up: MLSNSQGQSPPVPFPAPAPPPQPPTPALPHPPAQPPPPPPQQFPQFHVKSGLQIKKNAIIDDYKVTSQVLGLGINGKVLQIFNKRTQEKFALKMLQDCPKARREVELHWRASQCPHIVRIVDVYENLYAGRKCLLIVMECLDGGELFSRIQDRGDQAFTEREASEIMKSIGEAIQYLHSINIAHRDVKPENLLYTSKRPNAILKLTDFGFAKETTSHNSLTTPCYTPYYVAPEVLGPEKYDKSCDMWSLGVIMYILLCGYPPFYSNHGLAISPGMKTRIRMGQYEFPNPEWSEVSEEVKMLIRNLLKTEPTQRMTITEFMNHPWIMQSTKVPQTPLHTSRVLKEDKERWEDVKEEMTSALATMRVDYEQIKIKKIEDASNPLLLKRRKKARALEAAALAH
UniProt Q16620, whole entry, looked up: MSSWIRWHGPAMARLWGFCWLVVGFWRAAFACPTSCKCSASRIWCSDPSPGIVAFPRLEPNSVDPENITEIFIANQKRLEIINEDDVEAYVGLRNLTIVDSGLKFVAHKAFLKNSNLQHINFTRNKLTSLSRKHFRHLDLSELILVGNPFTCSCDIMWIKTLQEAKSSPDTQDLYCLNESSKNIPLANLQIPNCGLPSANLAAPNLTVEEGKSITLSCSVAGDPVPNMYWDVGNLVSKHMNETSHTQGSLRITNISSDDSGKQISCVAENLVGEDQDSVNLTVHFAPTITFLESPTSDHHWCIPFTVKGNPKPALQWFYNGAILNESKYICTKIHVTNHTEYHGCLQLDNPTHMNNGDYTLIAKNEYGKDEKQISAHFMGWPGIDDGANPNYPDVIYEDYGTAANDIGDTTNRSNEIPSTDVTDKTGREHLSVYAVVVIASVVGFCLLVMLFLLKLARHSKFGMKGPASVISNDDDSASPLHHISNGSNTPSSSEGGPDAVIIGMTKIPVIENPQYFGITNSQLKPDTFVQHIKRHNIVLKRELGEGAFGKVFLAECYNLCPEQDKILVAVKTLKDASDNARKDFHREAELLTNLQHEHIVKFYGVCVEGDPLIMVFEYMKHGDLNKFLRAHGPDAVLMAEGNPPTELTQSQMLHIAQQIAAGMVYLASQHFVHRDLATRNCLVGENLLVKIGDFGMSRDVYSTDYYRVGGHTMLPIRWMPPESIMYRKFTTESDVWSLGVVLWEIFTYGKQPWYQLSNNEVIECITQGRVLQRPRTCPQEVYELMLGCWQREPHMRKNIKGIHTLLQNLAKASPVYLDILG
UniProt Q96KB5: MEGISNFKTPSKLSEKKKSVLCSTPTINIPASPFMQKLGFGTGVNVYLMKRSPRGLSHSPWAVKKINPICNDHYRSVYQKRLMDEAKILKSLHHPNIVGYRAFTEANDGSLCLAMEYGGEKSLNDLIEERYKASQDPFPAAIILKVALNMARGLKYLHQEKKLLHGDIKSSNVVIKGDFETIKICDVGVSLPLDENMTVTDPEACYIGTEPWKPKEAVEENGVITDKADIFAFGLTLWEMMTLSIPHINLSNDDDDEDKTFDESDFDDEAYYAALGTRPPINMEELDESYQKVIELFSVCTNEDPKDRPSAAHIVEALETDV
UniProt P09619, whole entry: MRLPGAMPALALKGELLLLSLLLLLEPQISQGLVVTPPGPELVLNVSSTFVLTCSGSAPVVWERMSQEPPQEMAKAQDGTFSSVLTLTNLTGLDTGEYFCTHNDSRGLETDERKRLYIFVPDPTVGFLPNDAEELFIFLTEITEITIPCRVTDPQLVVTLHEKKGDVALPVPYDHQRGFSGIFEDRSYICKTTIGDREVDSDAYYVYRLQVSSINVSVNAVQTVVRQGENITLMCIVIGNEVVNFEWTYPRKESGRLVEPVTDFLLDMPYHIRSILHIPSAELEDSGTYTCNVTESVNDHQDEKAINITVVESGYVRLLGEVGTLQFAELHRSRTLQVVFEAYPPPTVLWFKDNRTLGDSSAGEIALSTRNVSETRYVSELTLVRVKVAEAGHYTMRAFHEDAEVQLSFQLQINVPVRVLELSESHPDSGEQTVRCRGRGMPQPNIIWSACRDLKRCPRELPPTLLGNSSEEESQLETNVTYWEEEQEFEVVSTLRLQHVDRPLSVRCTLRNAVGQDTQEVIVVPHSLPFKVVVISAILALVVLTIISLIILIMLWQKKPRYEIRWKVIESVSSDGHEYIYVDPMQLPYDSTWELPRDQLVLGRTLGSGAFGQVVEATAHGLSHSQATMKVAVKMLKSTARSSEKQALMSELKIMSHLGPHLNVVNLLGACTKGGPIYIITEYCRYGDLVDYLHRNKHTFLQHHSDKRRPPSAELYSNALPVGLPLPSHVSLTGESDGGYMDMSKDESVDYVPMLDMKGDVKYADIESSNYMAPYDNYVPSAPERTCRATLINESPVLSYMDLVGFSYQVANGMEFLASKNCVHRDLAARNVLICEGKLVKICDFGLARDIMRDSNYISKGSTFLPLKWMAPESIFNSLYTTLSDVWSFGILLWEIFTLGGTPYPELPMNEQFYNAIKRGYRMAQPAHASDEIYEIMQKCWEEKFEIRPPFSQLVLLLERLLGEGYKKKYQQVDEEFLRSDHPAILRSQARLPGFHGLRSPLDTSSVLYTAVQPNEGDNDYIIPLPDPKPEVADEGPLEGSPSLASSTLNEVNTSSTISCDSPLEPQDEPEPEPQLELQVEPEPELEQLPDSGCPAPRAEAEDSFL
UniProt Q15118, whole entry, looked up: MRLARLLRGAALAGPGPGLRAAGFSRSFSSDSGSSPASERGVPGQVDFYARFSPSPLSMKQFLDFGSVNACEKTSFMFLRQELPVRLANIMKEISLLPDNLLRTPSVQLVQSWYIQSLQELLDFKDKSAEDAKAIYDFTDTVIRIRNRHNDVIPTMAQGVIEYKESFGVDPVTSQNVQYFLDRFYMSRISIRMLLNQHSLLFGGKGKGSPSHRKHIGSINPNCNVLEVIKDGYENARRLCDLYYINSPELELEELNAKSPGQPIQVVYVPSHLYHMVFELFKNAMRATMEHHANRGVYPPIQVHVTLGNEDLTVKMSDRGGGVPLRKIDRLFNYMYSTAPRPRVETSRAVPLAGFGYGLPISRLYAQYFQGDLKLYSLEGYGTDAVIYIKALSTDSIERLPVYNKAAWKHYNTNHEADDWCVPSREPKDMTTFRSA

Assays:
Assay in all cases: kinase-Nluc reporter destabilization hit call (1 = scored as downregulated) (binary); higher = compound decreases kinase abundance
Details in all cases: K562; 2-18 h
IRAK3 = IRAK3 (UniProt Q9Y616)
JAK1 = JAK1 (UniProt P23458)
LCK = LCK (UniProt P06239)
LIMK1 = LIMK1 (UniProt P53667)
LIMK2 = LIMK2 (UniProt P53671)
LMTK2 = LMTK2 (UniProt Q8IWU2)
LYN = LYN (UniProt P07948)
MAP2K1 = MAP2K1 (UniProt Q02750)
MAP2K2 = MAP2K2 (UniProt P36507)
MAP4K2 = MAP4K2 (UniProt Q12851)
MAPK1 = MAPK1 (UniProt P28482)
MAPK4 = MAPK4 (UniProt P31152)
MAPKAPK2 = MAPKAPK2 (UniProt P49137)
MKNK1 = MKNK1 (UniProt Q9BUB5)
NTRK2 = NTRK2 (UniProt Q16620)
NTRK3 = NTRK3 (UniProt Q16288)
PAK4 = PAK4 (UniProt O96013)
PBK = PBK (UniProt Q96KB5)
PDGFRB = PDGFRB (UniProt P09619)
PDK1 = PDK1 (UniProt Q15118)

Measured: kinase-Nluc reporter destabilization hit call

Cc1c(NC(=O)OC[C@@H]2COCCN2)cn2ncnc(Nc3ccc4c(cnn4Cc4cccc(F)c4)c3)c12 (10 µM)
inactive: IRAK3 = 0 | JAK1 = 0 | LCK 0 | LIMK1 = 0 | LIMK2 = 0 | LMTK2 = 0 | LYN 0 | MAP2K1 = 0 | MAP2K2 = 0 | MAP4K2 = 0 | MAPK1 = 0 | MAPK4 = 0 | MAPKAPK2 = 0 | MKNK1 = 0 | NTRK2 = 0 | NTRK3 = 0 | PAK4 = 0 | PBK 0 | PDGFRB 0 | PDK1 = 0

COc1ccc(Cn2cc(C(=O)N=Nc3c(O)[nH]c4c(C)cccc34)nn2)cc1 [MARK4 inhibitor 1] (10 µM)
inactive: IRAK3 = 0 | JAK1 = 0 | LCK 0 | LIMK1 = 0 | LIMK2 = 0 | LMTK2 = 0 | LYN 0 | MAP2K1 = 0 | MAP2K2 = 0 | MAP4K2 = 0 | MAPK1 = 0 | MAPK4 = 0 | MAPKAPK2 = 0 | MKNK1 = 0 | NTRK2 = 0 | NTRK3 = 0 | PAK4 = 0 | PBK 0 | PDGFRB 0 | PDK1 = 0

COc1cc(C(N)=O)nc(-c2cccc(C#C[C@]3(O)CCN(C)C3=O)c2)c1 (10 µM)
inactive: IRAK3 = 0 | JAK1 = 0 | LCK 0 | LIMK1 = 0 | LIMK2 = 0 | LMTK2 = 0 | LYN 0 | MAP2K1 = 0 | MAP2K2 = 0 | MAP4K2 = 0 | MAPK1 = 0 | MAPK4 = 0 | MAPKAPK2 = 0 | MKNK1 = 0 | NTRK2 = 0 | NTRK3 = 0 | PAK4 = 0 | PBK 0 | PDGFRB 0 | PDK1 = 0

CC1CN(C(=O)Nc2ccc(Cl)c(Cl)c2)C(=Nc2ccc(F)cc2)S1 (stereo not given) (10 µM)
inactive: IRAK3 = 0 | JAK1 = 0 | LCK 0 | LIMK1 = 0 | LIMK2 = 0 | LMTK2 = 0 | LYN 0 | MAP2K1 = 0 | MAP2K2 = 0 | MAP4K2 = 0 | MAPK1 = 0 | MAPK4 = 0 | MAPKAPK2 = 0 | MKNK1 = 0 | NTRK2 = 0 | NTRK3 = 0 | PAK4 = 0 | PBK 0 | PDGFRB 0 | PDK1 = 0

COc1ccc(C2CC(c3ccccc3)=NN2c2ccc(S(N)(=O)=O)cc2)cc1 (stereo not given) (10 µM)
inactive: IRAK3 = 0 | JAK1 = 0 | LCK 0 | LIMK1 = 0 | LIMK2 = 0 | LMTK2 = 0 | LYN 0 | MAP2K1 = 0 | MAP2K2 = 0 | MAP4K2 = 0 | MAPK1 = 0 | MAPK4 = 0 | MAPKAPK2 = 0 | MKNK1 = 0 | NTRK2 = 0 | NTRK3 = 0 | PAK4 = 0 | PBK 0 | PDGFRB 0 | PDK1 = 0

Fc1ccc(-c2nc(-c3ccccc3F)[nH]c2-c2ccncc2)cc1 (2.5 µM)
inactive: IRAK3 = 0 | JAK1 = 0 | LCK 0 | LIMK1 = 0 | LIMK2 = 0 | LMTK2 = 0 | LYN 0 | MAP2K1 = 0 | MAP2K2 = 0 | MAP4K2 = 0 | MAPK1 = 0 | MAPK4 = 0 | MAPKAPK2 = 0 | MKNK1 = 0 | NTRK2 = 0 | NTRK3 = 0 | PAK4 = 0 | PBK 0 | PDGFRB 0 | PDK1 = 0

Two records drawn at random from the list so far, as already listed:
COc1ccc(Cn2cc(C(=O)N=Nc3c(O)[nH]c4c(C)cccc34)nn2)cc1 [MARK4 inhibitor 1] (10 µM)
inactive: IRAK3 = 0 | JAK1 = 0 | LCK 0 | LIMK1 = 0 | LIMK2 = 0 | LMTK2 = 0 | LYN 0 | MAP2K1 = 0 | MAP2K2 = 0 | MAP4K2 = 0 | MAPK1 = 0 | MAPK4 = 0 | MAPKAPK2 = 0 | MKNK1 = 0 | NTRK2 = 0 | NTRK3 = 0 | PAK4 = 0 | PBK 0 | PDGFRB 0 | PDK1 = 0

Fc1ccc(-c2nc(-c3ccccc3F)[nH]c2-c2ccncc2)cc1 (2.5 µM)
inactive: IRAK3 = 0 | JAK1 = 0 | LCK 0 | LIMK1 = 0 | LIMK2 = 0 | LMTK2 = 0 | LYN 0 | MAP2K1 = 0 | MAP2K2 = 0 | MAP4K2 = 0 | MAPK1 = 0 | MAPK4 = 0 | MAPKAPK2 = 0 | MKNK1 = 0 | NTRK2 = 0 | NTRK3 = 0 | PAK4 = 0 | PBK 0 | PDGFRB 0 | PDK1 = 0

Next compounds.

C=CC(=O)Nc1ccc(CN(C(=O)Nc2c(Cl)c(OC)cc(OC)c2Cl)c2cc(Nc3ccc(N4CCN(C)CC4)cc3)ncn2)cc1 (10 µM)
inactive: IRAK3 = 0 | JAK1 = 0 | LCK 0 | LIMK1 = 0 | LIMK2 = 0 | LMTK2 = 0 | LYN 0 | MAP2K1 = 0 | MAP2K2 = 0 | MAP4K2 = 0 | MAPK1 = 0 | MAPK4 = 0 | MAPKAPK2 = 0 | MKNK1 = 0 | NTRK2 = 0 | NTRK3 = 0 | PAK4 = 0 | PBK 0 | PDGFRB 0 | PDK1 = 0

C=CC(=O)Nc1cc2c(Nc3ccc(OCc4ccccn4)c(Cl)c3)ncnc2cc1OCCN1CCOCC1 (10 µM)
inactive: IRAK3 = 0 | JAK1 = 0 | LCK 0 | LIMK1 = 0 | LIMK2 = 0 | LMTK2 = 0 | LYN 0 | MAP2K1 = 0 | MAP2K2 = 0 | MAP4K2 = 0 | MAPK1 = 0 | MAPK4 = 0 | MAPKAPK2 = 0 | MKNK1 = 0 | NTRK2 = 0 | NTRK3 = 0 | PAK4 = 0 | PBK 0 | PDGFRB 0 | PDK1 = 0

CCc1cc(O)c(F)cc1-c1ccc2c(-c3nc4c([nH]3)CN(C3CCN(C)CC3)CC4)n[nH]c2c1 [JAK-IN-5 (hydrochloride)] (2 µM)
inactive: IRAK3 = 0 | JAK1 = 0 | LCK 0 | LIMK1 = 0 | LIMK2 = 0 | LMTK2 = 0 | LYN 0 | MAP2K1 = 0 | MAP2K2 = 0 | MAP4K2 = 0 | MAPK1 = 0 | MAPK4 = 0 | MAPKAPK2 = 0 | MKNK1 = 0 | NTRK2 = 0 | NTRK3 = 0 | PAK4 = 0 | PBK 0 | PDGFRB 0 | PDK1 = 0

COc1ccc([C@H]2c3[nH]c4ccc(Cl)cc4c3CCN2C(=O)Oc2ccc(Cl)cc2)cc1 (2.5 µM)
inactive: IRAK3 = 0 | JAK1 = 0 | LCK 0 | LIMK1 = 0 | LIMK2 = 0 | LMTK2 = 0 | LYN 0 | MAP2K1 = 0 | MAP2K2 = 0 | MAP4K2 = 0 | MAPK1 = 0 | MAPK4 = 0 | MAPKAPK2 = 0 | MKNK1 = 0 | NTRK2 = 0 | NTRK3 = 0 | PAK4 = 0 | PBK 0 | PDGFRB 0 | PDK1 = 0

Cc1ccc(Nc2cc(-c3cccc(N4C(=O)c5ccccc5C4=O)c3)ncn2)cc1NS(C)(=O)=O (10 µM)
inactive: IRAK3 = 0 | JAK1 = 0 | LCK 0 | LIMK1 = 0 | LIMK2 = 0 | LMTK2 = 0 | LYN 0 | MAP2K1 = 0 | MAP2K2 = 0 | MAP4K2 = 0 | MAPK1 = 0 | MAPK4 = 0 | MAPKAPK2 = 0 | MKNK1 = 0 | NTRK2 = 0 | NTRK3 = 0 | PAK4 = 0 | PBK 0 | PDGFRB 0 | PDK1 = 0

COc1ccc(C(=C2C(=O)Nc3ccccc32)c2ccc(OC)cc2)cc1 (10 µM)
inactive: IRAK3 = 0 | JAK1 = 0 | LCK 0 | LIMK1 = 0 | LIMK2 = 0 | LMTK2 = 0 | LYN 0 | MAP2K1 = 0 | MAP2K2 = 0 | MAP4K2 = 0 | MAPK1 = 0 | MAPK4 = 0 | MAPKAPK2 = 0 | MKNK1 = 0 | NTRK2 = 0 | NTRK3 = 0 | PAK4 = 0 | PBK 0 | PDGFRB 0 | PDK1 = 0

C=CC(=O)Nc1cccc(C)c1Nc1ncc2cc(-c3c(Cl)c(OC)cc(OC)c3Cl)ccc2n1 (2.5 µM)
inactive: IRAK3 = 0 | JAK1 = 0 | LCK 0 | LIMK1 = 0 | LIMK2 = 0 | LMTK2 = 0 | LYN 0 | MAP2K1 = 0 | MAP2K2 = 0 | MAP4K2 = 0 | MAPK1 = 0 | MAPK4 = 0 | MAPKAPK2 = 0 | MKNK1 = 0 | NTRK2 = 0 | NTRK3 = 0 | PAK4 = 0 | PBK 0 | PDGFRB 0 | PDK1 = 0

Cc1ccc(NC(=S)NNc2c([N+](=O)[O-])cc(C(F)(F)F)cc2[N+](=O)[O-])cc1Cl (10 µM)
inactive: IRAK3 = 0 | JAK1 = 0 | LCK 0 | LIMK1 = 0 | LIMK2 = 0 | LMTK2 = 0 | LYN 0 | MAP2K1 = 0 | MAP2K2 = 0 | MAP4K2 = 0 | MAPK1 = 0 | MAPK4 = 0 | MAPKAPK2 = 0 | MKNK1 = 0 | NTRK2 = 0 | NTRK3 = 0 | PAK4 = 0 | PBK 0 | PDGFRB 0 | PDK1 = 0

Cc1csc(-c2nnc(Nc3ccc(Oc4ncccc4-c4ccnc(N)n4)cc3)c3ccccc23)c1 (2.5 µM)
inactive: IRAK3 = 0 | JAK1 = 0 | LCK 0 | LIMK1 = 0 | LIMK2 = 0 | LMTK2 = 0 | LYN 0 | MAP2K1 = 0 | MAP2K2 = 0 | MAP4K2 = 0 | MAPK1 = 0 | MAPK4 = 0 | MAPKAPK2 = 0 | MKNK1 = 0 | NTRK2 = 0 | NTRK3 = 0 | PAK4 = 0 | PBK 0 | PDGFRB 0 | PDK1 = 0

COc1ccc2c(c1O)OC(C)(C)c1c-2ccc2c1C(=O)N(c1ccc(C(=O)c3ccccc3)cc1)C2=O [Ampkinone] (10 µM)
inactive: IRAK3 = 0 | JAK1 = 0 | LCK 0 | LIMK1 = 0 | LIMK2 = 0 | LMTK2 = 0 | LYN 0 | MAP2K1 = 0 | MAP2K2 = 0 | MAP4K2 = 0 | MAPK1 = 0 | MAPK4 = 0 | MAPKAPK2 = 0 | MKNK1 = 0 | NTRK2 = 0 | NTRK3 = 0 | PAK4 = 0 | PBK 0 | PDGFRB 0 | PDK1 = 0

COC1(c2sc3c(N4CCOCC4)nc(-c4cnc(N)nc4)nc3c2C)COC1 (2.5 µM)
inactive: IRAK3 = 0 | JAK1 = 0 | LCK 0 | LIMK1 = 0 | LIMK2 = 0 | LMTK2 = 0 | LYN 0 | MAP2K1 = 0 | MAP2K2 = 0 | MAP4K2 = 0 | MAPK1 = 0 | MAPK4 = 0 | MAPKAPK2 = 0 | MKNK1 = 0 | NTRK2 = 0 | NTRK3 = 0 | PAK4 = 0 | PBK 0 | PDGFRB 0 | PDK1 = 0
